Data as given in patent publication US20050239064A1 (published 2005).
No constants are given. Whether binding was seen depends on the method and setting. Some results given as binding are weak or reduced against the parent protein; the word gives no strength. Tags and fused reporters may be left off the sequences shown.

By UniProt entry, the sequences of proteins in these tests, tags left out. Where a name states a change or a piece, a line headed by the entry shows the natural chain unless it says otherwise.
UniProt P21519: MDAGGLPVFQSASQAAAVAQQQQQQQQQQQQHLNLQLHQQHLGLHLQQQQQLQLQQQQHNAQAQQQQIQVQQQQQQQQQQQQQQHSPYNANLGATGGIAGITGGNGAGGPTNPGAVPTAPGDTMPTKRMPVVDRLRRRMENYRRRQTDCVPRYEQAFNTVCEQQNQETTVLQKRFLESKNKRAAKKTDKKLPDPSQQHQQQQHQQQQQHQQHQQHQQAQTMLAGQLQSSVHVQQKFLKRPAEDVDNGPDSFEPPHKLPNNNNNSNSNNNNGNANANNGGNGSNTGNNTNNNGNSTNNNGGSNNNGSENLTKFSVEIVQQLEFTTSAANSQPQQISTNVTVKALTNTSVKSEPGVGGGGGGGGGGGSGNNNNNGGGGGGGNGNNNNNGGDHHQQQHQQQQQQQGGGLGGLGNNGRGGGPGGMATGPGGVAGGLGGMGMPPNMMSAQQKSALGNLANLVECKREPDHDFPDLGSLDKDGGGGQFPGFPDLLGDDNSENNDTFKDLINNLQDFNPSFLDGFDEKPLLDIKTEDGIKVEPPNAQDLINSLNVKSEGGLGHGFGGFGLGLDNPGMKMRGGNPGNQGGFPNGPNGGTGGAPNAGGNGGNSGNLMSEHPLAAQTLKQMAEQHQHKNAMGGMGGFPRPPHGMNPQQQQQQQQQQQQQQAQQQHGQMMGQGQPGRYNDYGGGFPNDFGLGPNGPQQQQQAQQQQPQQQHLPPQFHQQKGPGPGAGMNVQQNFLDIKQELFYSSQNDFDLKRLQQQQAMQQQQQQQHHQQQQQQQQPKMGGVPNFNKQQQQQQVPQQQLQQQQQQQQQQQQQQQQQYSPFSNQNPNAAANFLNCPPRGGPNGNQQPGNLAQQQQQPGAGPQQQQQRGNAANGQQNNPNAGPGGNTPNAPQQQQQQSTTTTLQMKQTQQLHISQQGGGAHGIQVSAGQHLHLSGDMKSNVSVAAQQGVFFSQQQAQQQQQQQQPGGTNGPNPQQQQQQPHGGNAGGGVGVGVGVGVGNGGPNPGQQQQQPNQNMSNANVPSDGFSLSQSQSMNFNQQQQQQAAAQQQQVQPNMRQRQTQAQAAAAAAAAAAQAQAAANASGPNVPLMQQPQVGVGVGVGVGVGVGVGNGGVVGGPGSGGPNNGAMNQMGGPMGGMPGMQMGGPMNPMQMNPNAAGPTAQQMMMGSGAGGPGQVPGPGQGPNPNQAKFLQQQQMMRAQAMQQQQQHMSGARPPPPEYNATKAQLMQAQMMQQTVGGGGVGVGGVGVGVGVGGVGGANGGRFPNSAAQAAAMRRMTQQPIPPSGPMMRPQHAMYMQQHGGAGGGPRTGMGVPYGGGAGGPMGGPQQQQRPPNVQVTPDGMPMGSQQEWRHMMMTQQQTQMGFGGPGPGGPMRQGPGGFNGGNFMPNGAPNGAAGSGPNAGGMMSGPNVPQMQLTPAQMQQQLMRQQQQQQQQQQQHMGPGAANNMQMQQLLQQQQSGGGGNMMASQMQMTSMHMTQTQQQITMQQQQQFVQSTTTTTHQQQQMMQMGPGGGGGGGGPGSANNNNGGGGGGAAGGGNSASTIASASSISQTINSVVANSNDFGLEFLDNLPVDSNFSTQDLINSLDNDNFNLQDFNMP

Columns and labels:
[1] = molecular target: T1, Mip30 two-hybrid clone, amino-terminally truncated protein of 315 amino acids, fused to the E. coli B42 transactivation domain encoded by pJG4-5 (Drosophila); assay: yeast two-hybrid in strain EGY48, β-galactosidase units
T1 sequence: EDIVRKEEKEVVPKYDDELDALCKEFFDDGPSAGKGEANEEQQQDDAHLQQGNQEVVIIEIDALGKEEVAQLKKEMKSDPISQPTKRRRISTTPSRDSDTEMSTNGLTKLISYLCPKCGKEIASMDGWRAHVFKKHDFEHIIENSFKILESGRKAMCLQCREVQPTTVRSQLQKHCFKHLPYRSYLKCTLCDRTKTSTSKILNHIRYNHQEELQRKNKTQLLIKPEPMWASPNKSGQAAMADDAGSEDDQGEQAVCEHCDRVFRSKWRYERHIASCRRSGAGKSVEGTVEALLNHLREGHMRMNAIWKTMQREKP

[2] = molecular target: T1, Mip30 two-hybrid clone, amino-terminally truncated protein of 315 amino acids, fused to the E. coli B42 transactivation domain encoded by pJG4-5 (Drosophila); assay: yeast two-hybrid, lacZ reporter
[3] = molecular target: T2, Mip1 tagged at its amino terminus with the HA epitope, expressed from pcDNA3 in 293T cells (Drosophila); assay: co-expression in 293T cells, indirect immunofluorescence
T2 sequence: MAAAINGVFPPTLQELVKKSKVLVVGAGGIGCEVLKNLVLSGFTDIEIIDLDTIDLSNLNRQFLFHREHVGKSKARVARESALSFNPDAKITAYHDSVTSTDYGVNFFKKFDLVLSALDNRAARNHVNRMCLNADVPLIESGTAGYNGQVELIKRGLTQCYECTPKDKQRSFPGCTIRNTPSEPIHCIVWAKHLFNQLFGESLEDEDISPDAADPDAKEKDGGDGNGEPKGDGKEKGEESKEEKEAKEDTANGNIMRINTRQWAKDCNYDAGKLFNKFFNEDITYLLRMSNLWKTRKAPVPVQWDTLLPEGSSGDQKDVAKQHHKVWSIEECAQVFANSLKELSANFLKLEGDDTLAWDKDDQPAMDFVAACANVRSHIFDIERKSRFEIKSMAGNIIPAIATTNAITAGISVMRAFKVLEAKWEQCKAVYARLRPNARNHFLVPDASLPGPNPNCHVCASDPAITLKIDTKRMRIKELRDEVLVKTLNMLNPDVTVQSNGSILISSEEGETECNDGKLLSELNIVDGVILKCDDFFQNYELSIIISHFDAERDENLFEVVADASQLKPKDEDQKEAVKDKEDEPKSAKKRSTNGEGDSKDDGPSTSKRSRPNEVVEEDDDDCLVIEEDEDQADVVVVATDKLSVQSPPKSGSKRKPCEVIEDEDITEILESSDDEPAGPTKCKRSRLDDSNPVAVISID

Substance	binding [1]	binding [2]	binding [3]
truncated Mam protein (carboxy-terminal 32 amino acids of full-length Drosophila Mastermind deleted) fused to the Gal4 DNA-binding domain encoded by pEG202 (from UniProt P21519 1-1562)	binds	binds	
Drosophila Mastermind (Mam) tagged at its amino terminus with the Flag epitope, expressed from pcDNA3 in 293T cells (from UniProt P21519 1-1594)			binds
